Source: PMC9927256, “Structural and Functional Characterization of Rv0792c from Mycobacterium tuberculosis: Identifying Small Molecule Inhibitor against HutC Protein” (Microbiology Spectrum, 2022)
These are yes or no findings as the source states them, for the method shown. Some entries that bind do so weakly or less than the wild type. Where a sequence is shown, tags or fusion partners need not be part of it.

Legend:
[1] = molecular target: Rv0792c from Mycobacterium tuberculosis, wild type, with an amino-terminal histidine tag (Mycobacterium tuberculosis) (UniProt O86331); experiment: condition: only with the ssDNA aptamer Rv0792c_2 in a molar mixture; SAXS; molar mixture of Rv0792c with the ssDNA aptamer Rv0792c_2; mass from the scattering data; both purified
[2] = molecular target: Rv0792c from Mycobacterium tuberculosis, wild type, with an amino-terminal histidine tag (Mycobacterium tuberculosis) (UniProt O86331); experiment: SAXS; molar mixtures of Rv0792c with the ssDNA aptamers Rv0792c_1 or Rv0792c_5; mass from the scattering data; both purified

B1: Rv0792c from Mycobacterium tuberculosis, wild type, with an amino-terminal histidine tag (natural protein)
chain: MTSVKLDLDAADLRISRGSVPASTQLAEALKAQIIQQRLPRGGRLPSERELIDRSGLSRVTVRAAVGMLQRQGWLVRRQGLGTFVADPVEQELSCGVRTITEVLLSCGVTPQVDVLSHQTGPAPQRISETLGLVEVLCIRRRIRTGDQPLALVTAYLPPGVGPAVEPLLSGSADTETTYAMWERRLGVRIAQATHEIHAAGASPDVADALGLAVGSPVLVVDRTSYTNDGKPLEVVVFHHRPERYQFSVTLPRTLPGSGAGIIEKRDFA
notes: also called His6-Rv0792c; (His)6-Rv0792c; not shown: His6, N-terminal, kept
binding [1]: no binding
binding [2]: binds
